In test [1] the target is SNAP-mGluR7 (N-terminally SNAP-tagged metabotropic glutamate receptor 7) (rat) (UniProt P35400). As to the kind of experiment: FRET or BRET; live-cell ensemble FRET between SNAP/CLIP tags of the two subunits, labelled with donor and acceptor dyes, on transfected HEK293T cells; confocal microscope, images at 1 Hz; extracellular solution pH 7.4; glutamate perfused. (In general: In BRET a luciferase serves as donor, and the signal depends on an acceptor being close.)

Sequences of proteins named here, by UniProt entry; tags and fusion partners are left off. A change or cut given only in a name is not applied to a line headed by its entry. A line that says so, or that is headed by a name, gives the form on record, which may keep a tag or linker. Residues count along the entry.
SNAP-mGluR7 (N-terminally SNAP-tagged metabotropic glutamate receptor 7) (P35400, residues 35-915): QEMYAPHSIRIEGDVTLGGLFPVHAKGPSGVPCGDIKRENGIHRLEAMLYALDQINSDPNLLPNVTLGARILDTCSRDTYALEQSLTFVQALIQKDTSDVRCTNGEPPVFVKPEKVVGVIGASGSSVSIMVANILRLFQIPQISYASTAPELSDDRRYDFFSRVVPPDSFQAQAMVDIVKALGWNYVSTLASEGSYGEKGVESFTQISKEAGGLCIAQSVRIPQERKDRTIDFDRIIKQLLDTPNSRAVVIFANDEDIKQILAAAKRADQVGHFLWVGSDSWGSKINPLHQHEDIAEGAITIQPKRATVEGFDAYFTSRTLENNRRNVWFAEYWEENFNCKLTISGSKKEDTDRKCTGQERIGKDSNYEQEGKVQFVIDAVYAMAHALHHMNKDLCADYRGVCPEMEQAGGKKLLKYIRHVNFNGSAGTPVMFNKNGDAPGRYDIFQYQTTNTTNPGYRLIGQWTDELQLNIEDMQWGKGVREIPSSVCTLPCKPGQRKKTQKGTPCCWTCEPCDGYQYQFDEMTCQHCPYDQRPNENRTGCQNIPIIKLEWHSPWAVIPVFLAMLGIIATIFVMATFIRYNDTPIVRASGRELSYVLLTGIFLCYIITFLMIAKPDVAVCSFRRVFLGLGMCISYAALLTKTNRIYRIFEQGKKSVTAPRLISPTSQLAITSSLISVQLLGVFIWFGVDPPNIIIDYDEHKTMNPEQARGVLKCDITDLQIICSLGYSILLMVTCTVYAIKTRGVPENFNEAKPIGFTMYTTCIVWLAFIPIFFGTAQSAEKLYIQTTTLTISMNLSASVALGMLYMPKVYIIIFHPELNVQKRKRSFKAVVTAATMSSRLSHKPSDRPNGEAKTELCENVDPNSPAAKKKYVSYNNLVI
SNAP-mGluR7(N74K) (P35400, form named): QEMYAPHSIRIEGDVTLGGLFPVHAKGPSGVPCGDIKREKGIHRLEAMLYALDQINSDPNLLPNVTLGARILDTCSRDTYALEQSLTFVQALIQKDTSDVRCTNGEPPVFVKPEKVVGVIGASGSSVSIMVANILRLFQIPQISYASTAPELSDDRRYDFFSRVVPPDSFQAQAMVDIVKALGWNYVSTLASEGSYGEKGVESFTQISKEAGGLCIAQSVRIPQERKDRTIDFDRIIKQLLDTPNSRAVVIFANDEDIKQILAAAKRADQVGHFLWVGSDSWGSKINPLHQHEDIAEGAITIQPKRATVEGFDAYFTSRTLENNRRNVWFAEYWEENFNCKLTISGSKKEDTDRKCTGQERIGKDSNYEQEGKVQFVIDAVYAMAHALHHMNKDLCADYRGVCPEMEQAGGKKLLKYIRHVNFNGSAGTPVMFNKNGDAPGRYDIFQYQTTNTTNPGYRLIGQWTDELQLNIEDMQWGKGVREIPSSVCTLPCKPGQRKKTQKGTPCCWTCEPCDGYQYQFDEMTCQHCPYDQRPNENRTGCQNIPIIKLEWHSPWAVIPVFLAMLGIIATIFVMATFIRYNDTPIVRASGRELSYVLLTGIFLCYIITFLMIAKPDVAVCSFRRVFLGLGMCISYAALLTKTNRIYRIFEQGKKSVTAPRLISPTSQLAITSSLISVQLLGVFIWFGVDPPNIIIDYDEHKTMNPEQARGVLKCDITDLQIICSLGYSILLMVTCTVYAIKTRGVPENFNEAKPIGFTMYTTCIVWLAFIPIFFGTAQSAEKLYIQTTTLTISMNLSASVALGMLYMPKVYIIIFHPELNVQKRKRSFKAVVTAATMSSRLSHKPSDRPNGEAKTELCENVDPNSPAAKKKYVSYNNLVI
mGluR2 (endogenous, rat hippocampus) (P31421, residues 19-872): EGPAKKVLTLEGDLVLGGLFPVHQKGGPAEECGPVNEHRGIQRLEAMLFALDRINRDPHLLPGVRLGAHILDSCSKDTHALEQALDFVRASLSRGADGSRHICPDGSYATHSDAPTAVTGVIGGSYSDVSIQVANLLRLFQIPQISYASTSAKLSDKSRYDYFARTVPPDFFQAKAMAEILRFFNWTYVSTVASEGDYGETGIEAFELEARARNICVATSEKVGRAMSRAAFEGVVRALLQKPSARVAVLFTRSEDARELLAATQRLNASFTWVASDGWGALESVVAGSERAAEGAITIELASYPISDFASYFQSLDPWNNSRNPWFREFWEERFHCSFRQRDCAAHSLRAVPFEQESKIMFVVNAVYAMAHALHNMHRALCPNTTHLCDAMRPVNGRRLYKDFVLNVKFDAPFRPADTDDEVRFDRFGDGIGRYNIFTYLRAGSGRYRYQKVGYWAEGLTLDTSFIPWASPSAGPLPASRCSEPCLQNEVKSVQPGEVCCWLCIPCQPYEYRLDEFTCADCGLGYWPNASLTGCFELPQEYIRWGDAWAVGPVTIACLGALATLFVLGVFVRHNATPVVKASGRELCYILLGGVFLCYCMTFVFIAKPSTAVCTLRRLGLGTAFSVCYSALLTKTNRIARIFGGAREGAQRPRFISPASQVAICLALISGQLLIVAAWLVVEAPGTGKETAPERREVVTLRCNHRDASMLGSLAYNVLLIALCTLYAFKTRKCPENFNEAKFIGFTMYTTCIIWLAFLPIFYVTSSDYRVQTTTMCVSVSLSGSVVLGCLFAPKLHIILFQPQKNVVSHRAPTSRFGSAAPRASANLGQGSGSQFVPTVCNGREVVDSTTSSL
SNAP-mGluR2(YADA) (P31421, form named): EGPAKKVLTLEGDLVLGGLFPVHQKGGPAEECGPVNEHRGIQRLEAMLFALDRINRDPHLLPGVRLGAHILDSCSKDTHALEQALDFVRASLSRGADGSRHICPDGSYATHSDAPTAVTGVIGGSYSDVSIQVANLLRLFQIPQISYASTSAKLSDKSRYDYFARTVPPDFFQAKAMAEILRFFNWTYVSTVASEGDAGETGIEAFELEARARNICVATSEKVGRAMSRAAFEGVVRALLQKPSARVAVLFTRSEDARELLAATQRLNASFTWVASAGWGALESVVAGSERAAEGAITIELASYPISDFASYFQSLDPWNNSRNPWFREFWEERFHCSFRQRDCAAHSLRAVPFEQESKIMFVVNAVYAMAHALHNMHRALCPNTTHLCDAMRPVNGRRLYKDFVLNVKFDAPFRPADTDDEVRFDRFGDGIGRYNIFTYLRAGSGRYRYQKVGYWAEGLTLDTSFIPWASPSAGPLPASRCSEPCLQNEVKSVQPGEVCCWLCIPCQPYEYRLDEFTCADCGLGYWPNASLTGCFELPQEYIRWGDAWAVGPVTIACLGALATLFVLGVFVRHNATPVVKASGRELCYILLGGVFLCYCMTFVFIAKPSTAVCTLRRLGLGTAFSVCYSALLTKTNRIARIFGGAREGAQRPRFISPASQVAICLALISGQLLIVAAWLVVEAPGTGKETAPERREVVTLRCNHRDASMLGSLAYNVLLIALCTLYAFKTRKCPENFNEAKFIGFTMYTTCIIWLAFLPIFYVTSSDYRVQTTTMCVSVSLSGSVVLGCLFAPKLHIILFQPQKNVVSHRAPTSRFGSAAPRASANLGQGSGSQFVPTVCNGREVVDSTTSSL
UniProt P31423, residues 33-912: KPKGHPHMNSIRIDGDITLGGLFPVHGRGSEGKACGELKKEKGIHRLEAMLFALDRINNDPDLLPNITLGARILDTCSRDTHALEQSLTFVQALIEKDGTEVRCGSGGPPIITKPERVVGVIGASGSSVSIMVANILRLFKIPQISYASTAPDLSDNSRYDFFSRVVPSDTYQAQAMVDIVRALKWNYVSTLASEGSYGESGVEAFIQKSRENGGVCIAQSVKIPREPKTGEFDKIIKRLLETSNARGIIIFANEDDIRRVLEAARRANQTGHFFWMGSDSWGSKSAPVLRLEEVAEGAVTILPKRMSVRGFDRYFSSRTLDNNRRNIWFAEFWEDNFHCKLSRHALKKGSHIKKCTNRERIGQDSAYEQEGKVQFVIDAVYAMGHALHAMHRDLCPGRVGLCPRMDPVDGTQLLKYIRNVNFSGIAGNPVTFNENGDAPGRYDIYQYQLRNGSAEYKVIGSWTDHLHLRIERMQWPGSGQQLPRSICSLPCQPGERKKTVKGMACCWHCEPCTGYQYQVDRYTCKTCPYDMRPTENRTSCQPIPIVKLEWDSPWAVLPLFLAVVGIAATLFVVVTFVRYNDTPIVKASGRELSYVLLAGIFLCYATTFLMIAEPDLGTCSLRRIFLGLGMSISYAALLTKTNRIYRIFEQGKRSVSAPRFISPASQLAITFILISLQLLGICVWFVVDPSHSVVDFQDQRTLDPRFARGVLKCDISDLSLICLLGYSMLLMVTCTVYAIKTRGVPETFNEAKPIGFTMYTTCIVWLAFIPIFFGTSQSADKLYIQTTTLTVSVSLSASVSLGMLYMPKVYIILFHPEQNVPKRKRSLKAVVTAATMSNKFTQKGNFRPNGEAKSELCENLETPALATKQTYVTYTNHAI
UniProt P31422, residues 23-879: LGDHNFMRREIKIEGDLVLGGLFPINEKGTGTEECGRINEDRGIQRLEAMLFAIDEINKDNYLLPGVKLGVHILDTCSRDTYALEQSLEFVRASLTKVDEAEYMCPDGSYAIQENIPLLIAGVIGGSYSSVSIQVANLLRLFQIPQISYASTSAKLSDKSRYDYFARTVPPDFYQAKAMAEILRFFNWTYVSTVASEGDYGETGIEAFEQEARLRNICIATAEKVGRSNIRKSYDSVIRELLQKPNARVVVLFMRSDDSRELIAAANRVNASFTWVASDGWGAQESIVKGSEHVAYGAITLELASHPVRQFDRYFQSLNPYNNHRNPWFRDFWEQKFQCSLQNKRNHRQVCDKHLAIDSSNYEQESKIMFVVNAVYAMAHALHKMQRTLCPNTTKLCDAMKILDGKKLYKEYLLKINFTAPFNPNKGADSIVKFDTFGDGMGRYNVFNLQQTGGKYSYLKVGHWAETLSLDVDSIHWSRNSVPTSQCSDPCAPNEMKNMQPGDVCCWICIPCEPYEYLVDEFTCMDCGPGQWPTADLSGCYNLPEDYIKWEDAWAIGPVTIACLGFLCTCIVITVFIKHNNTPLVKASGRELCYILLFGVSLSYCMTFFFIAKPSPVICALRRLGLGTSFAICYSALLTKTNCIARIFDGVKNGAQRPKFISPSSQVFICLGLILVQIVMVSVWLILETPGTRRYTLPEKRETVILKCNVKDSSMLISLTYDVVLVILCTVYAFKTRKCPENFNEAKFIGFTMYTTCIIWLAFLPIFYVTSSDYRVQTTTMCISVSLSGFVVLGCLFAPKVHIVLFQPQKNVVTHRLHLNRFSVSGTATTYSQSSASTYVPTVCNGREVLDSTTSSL

The target of another test is SNAP-mGluR2(YADA) (rat) (UniProt P31421). As to the kind of experiment: FRET or BRET; single-molecule FRET (TIRF) between the tags of the two subunits of dimers formed in HEK293T cells, lysed in 1.2% IGEPAL, immune-purified from diluted lysate by anti-mGluR2, anti-mGluR7 or anti-HA antibody on PEG-passivated coverslips; imaging buffer pH 7.4 with 0.04% IGEPAL; traces with single-donor and single-acceptor photobleaching.

Test [2] deals with SNAP-mGluR7 (N-terminally SNAP-tagged metabotropic glutamate receptor 7) (rat) (UniProt P35400). The test is described as above.
A further test addresses SNAP-tagged mGluR4 (rat) (UniProt P31423). As to the kind of experiment: FRET or BRET; live-cell ensemble FRET between SNAP/CLIP tags of the two subunits, labelled with donor and acceptor dyes, on transfected HEK293T cells; confocal microscope, images at 1 Hz; extracellular solution pH 7.4; glutamate perfused.
For test [3], the target named is mGluR7 (endogenous, rat brain) (rat (endogenous in hippocampus and cortex)) (UniProt P35400). As to the kind of experiment: co-IP; anti-mGluR7 antibody on protein A/G magnetic beads, overnight at 4 °C, from solubilised (1.5% IGEPAL) membrane fractions of rat hippocampus or cortex; western blot. (In general: In western blotting, separated proteins are transferred to a membrane and probed.)

The target of a further test is SNAP-mGluR7(N74K) (rat) (UniProt P35400). As to the kind of experiment: FRET or BRET; single-molecule FRET (TIRF) between the tags of the two subunits of dimers formed in HEK293T cells, lysed in 1.2% IGEPAL, immune-purified from diluted lysate by anti-mGluR2, anti-mGluR7 or anti-HA antibody on PEG-passivated coverslips; imaging buffer pH 7.4 with 0.04% IGEPAL; traces with single-donor and single-acceptor photobleaching.

No constants are given. Whether binding was seen depends on the method and setting. Binding seen in cells or lysates may run through a third protein. Some entries that bind do so weakly or less than the wild type.

For the substance “CLIP-mGluR2 (from UniProt P31421 19-872) (receptor)”, the binding entry (in test [1]; with SNAP-mGluR2(YADA) (rat); in test [2]) was “binds” in each case.

Take “SNAP-tagged mGluR4 (from UniProt P31423 33-912) (receptor)”: the binding result in the test with SNAP-tagged mGluR4 (rat) is “binds”.

With “mGluR2 (endogenous, rat hippocampus) (from UniProt P31421 19-872) (receptor)”, the binding entry in test [3] is given as “binds”.

As for “mGluR3 (endogenous, rat cortex) (from UniProt P31422 23-879) (receptor)”, in test [3], the binding entry is “binds”.

Regarding “SNAP-mGluR7(N74K) (from UniProt P35400 35-915) (receptor)”, the binding result in the test with SNAP-mGluR7(N74K) (rat) was “binds”.

Turning to “SNAP-mGluR7 (N-terminally SNAP-tagged metabotropic glutamate receptor 7) (from UniProt P35400 35-915)”, the binding result in test [1] and in test [2] was “binds” throughout.

For the substance “mGluR3 subunit of the mGluR3/7 heterodimer (tagged for smFRET) (from UniProt P31422 23-879) (receptor)”, the binding result in test [2] is listed as “binds”.

Values taken from PMC6895203, “Conformational pathway provides unique sensitivity to a synaptic mGluR” (Nature Communications, 2019).
